No constants are given. Whether binding was seen depends on the method and setting. Binding seen in cells or lysates may run through a third protein. Some entries that bind do so weakly or less than the wild type.
Target: T1, chaperonin containing TCP1 subunit 2 (human (endogenous in HSC-3)) (UniProt P78371)
T1 sequence: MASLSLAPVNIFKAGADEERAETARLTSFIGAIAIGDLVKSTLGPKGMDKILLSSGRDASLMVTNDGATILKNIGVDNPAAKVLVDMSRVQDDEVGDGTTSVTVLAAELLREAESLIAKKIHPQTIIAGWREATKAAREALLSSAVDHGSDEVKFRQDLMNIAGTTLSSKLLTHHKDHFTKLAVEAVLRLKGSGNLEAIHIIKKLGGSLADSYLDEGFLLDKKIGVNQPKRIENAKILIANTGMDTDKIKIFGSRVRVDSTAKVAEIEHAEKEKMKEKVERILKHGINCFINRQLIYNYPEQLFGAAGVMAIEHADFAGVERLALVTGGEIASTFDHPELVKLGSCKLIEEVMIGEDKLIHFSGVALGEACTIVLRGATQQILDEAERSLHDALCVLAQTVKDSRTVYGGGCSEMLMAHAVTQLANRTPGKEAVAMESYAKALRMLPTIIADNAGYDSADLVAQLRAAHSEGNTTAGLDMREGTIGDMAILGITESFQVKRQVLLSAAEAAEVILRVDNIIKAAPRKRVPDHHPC
Test: co-IP; HSC-3 cell lysates in immunoprecipitation lysis buffer with protease inhibitors; incubated at 4 °C overnight with anti-CCT2 or anti-c-Myc antibody, then protein A/G agarose beads; Western blot for c-Myc and CCT2

The chains behind the UniProt entries cited, without tags or fusion partners.
UniProt P01106: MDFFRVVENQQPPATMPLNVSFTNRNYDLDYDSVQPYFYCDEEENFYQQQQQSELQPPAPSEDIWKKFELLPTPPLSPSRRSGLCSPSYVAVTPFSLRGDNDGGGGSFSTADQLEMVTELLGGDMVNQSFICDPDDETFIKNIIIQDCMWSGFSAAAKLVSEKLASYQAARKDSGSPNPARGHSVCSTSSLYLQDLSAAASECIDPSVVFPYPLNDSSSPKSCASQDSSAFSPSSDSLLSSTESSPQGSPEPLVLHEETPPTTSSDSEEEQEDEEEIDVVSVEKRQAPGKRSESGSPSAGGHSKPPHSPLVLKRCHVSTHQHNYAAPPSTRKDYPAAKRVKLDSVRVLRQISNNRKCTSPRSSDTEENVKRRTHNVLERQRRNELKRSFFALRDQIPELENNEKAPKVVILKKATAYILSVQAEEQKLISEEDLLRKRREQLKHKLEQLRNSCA

c-Myc (from UniProt P01106 1-454)
binding: binds

Reference: article PMC13485502
